These are yes or no findings as the source states them, for the method shown. Some binding calls cover weakened binding; strength is not graded here.
How the values were obtained:
[1] = molecular target: T1, VEGF-C (human, UniProt P49767 103-227, limits assumed); assay: direct binding ELISA, VEGF-C as capture antigen, detection with rabbit anti-human IgG-HRP
T1 sequence: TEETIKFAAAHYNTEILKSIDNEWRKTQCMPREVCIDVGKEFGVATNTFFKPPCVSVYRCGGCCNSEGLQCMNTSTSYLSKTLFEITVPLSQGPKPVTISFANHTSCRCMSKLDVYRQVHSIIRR

[2] = molecular target: T2, VEGF-C Monomer; assay: direct binding ELISA, antigen coated as capture antigen, bound VGX-100 detected with rabbit anti-human IgG-HRP, Abs 450 nm
T2 construct: a form of m2; also called monomer form of VEGF-C
T2 chain: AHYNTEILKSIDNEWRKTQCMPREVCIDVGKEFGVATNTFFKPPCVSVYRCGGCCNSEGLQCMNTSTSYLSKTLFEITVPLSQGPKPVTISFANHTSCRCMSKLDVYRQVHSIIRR

binding [1]: binds | binding [2]: binds
B1: VEGF-C antibody VGX-100 (antibody, human IgG1, lambda, V domains shown)
VH: EVRLLESGGGLVQPGGSLRLSCAASGFTFRPRAMAWVRQAPGKGLEWVSSISAQGASAYYADSVKGRFTISRDNSKNTLYLQMNSLRAEDTAVYYCARDLSVSGFGPWGRGTMVTVSS
VL: SYELTQPPSSSGTPGQRVTISCSGSSSNIGRHTVSWYQQVPGTAPKLLIYSDDHRPSGVPDRFSASKSGTSASLTITGLQSEDEADYYCAAWDDSLNGPWVFGGGTKLTVLG
